Data source: PubChem BioAssay AID1259308 (NCATS, 2017)
The deposit covers about 59,000 reagents; below is a part drawn at random. About 1,510 of them (2.6%) count as active. 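Calls use total luciferase alone and ignore viability, so some active siRNAs may act by altering cell number.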 Reagents against one gene are numbered here. Not all columns of the deposit are shown.

Aim: 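Knock-downs that increase output of a recombinant reporter protein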 (primary screen)
Cell system: human HEK293 embryonic kidney cells stably expressing firefly luciferase (HEK-CMV-Luc2-Hygro)
Knock-down reagent: single siRNA against human genes, 0.8 pmol siRNA per well
Duration: 72 h
Read-out: 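Reporter luminescence and viable-cell signal on separate replicate plates, given as percent of non-targeting control and median/MAD z-scores, plus per-cell luciferase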
Direction: total luciferase, z-score: higher = more reporter protein produced
Hit rule: 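Active when the median/MAD z-score for overall luciferase is greater than 3; a gene was taken forward for validation with new siRNAs if at least two of its three siRNAs passed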
Meaning of the calls: active = raised luciferase; inactive = no rise

| gene | siRNA no. | total luciferase, z-score | Outcome |
| --- | --- | --- | --- |
| SYPL1 (synaptophysin like 1) | 1 | 0.00458 | inactive |
| SYPL1 (synaptophysin like 1) | 2 | -0.479 | inactive |
| SYPL1 (synaptophysin like 1) | 3 | -0.105 | inactive |
| FAM174B (family with sequence similarity 174 member B) | 1 | 1.33 | inactive |
| FAM174B (family with sequence similarity 174 member B) | 2 | -0.768 | inactive |
| FAM174B (family with sequence similarity 174 member B) | 3 | 0.16 | inactive |
| FAM229B (family with sequence similarity 229 member B) | 1 | -0.00909 | inactive |
| FAM229B (family with sequence similarity 229 member B) | 2 | -1.06 | inactive |
| FAM229B (family with sequence similarity 229 member B) | 3 | -0.282 | inactive |
| GATB (glutamyl-tRNA amidotransferase subunit B) | 1 | 0.547 | inactive |
| GATB (glutamyl-tRNA amidotransferase subunit B) | 2 | -0.213 | inactive |
| GATB (glutamyl-tRNA amidotransferase subunit B) | 3 | 0.304 | inactive |
| PBX3 (PBX homeobox 3) | 1 | -0.503 | inactive |
| PBX3 (PBX homeobox 3) | 2 | 0.713 | inactive |
| PBX3 (PBX homeobox 3) | 3 | -1.59 | inactive |
| INS (insulin) | 1 | -1.31 | inactive |
| INS (insulin) | 2 | -0.951 | inactive |
| INS (insulin) | 3 | 0.295 | inactive |
| MAP1LC3C (microtubule associated protein 1 light chain 3 gamma) | 1 | -0.212 | inactive |
| MAP1LC3C (microtubule associated protein 1 light chain 3 gamma) | 2 | -0.439 | inactive |
| MAP1LC3C (microtubule associated protein 1 light chain 3 gamma) | 3 | -0.627 | inactive |
| OR5A2 (olfactory receptor family 5 subfamily A member 2) | 1 | 0.501 | inactive |
| OR5A2 (olfactory receptor family 5 subfamily A member 2) | 2 | 0.0905 | inactive |
| OR5A2 (olfactory receptor family 5 subfamily A member 2) | 3 | -1.61 | inactive |
| NUP88 (nucleoporin 88) | 1 | 1.09 | inactive |
| NUP88 (nucleoporin 88) | 2 | -0.678 | inactive |
| NUP88 (nucleoporin 88) | 3 | 0.226 | inactive |
| JCAD (junctional cadherin 5 associated) | 1 | -0.318 | inactive |
| JCAD (junctional cadherin 5 associated) | 2 | 1.61 | inactive |
| JCAD (junctional cadherin 5 associated) | 3 | -0.357 | inactive |
| ADCK5 (aarF domain containing kinase 5) | 1 | 0.00387 | inactive |
| ADCK5 (aarF domain containing kinase 5) | 2 | 1.05 | inactive |
| ADCK5 (aarF domain containing kinase 5) | 3 | 3.55 | active |
| CR1L (complement C3b/C4b receptor 1 like) | 1 | 2.76 | inactive |
| CR1L (complement C3b/C4b receptor 1 like) | 2 | 0.439 | inactive |
| CR1L (complement C3b/C4b receptor 1 like) | 3 | 0.243 | inactive |
| B3GAT3 (beta-1,3-glucuronyltransferase 3) | 1 | 0.61 | inactive |
| B3GAT3 (beta-1,3-glucuronyltransferase 3) | 2 | -1.02 | inactive |
| B3GAT3 (beta-1,3-glucuronyltransferase 3) | 3 | -1.2 | inactive |
| DNTTIP2 (deoxynucleotidyltransferase terminal interacting protein 2) | 1 | -0.627 | inactive |
| DNTTIP2 (deoxynucleotidyltransferase terminal interacting protein 2) | 2 | -1.52 | inactive |
| DNTTIP2 (deoxynucleotidyltransferase terminal interacting protein 2) | 3 | -3.1 | inactive |
| PBK (PDZ binding kinase) | 1 | -1.36 | inactive |
| PBK (PDZ binding kinase) | 2 | -0.305 | inactive |
| PBK (PDZ binding kinase) | 3 | -0.438 | inactive |
| LERFS | 1 | 2.68 | inactive |
| LERFS | 2 | 0.135 | inactive |
| LERFS | 3 | 0.169 | inactive |
| RFLNA (refilin A) | 1 | -0.0755 | inactive |
| RFLNA (refilin A) | 2 | 0.806 | inactive |
| RFLNA (refilin A) | 3 | 0.0372 | inactive |
| ATP6V0B (ATPase H+ transporting V0 subunit b) | 1 | -1.17 | inactive |
| ATP6V0B (ATPase H+ transporting V0 subunit b) | 2 | -0.265 | inactive |
| ATP6V0B (ATPase H+ transporting V0 subunit b) | 3 | -1.36 | inactive |
| H1-4 (H1.4 linker histone, cluster member) | 1 | 4.26 | active |
| H1-4 (H1.4 linker histone, cluster member) | 2 | 1.66 | inactive |
| H1-4 (H1.4 linker histone, cluster member) | 3 | 0.219 | inactive |
